At least one compound was matched to its structure with a doubt left.
Tested on: BCG
Assay type: cell-based, Mycobacterium bovis BCG
Conditions: in vitro BCG growth

## CO[C@H]1C[C@@H]2CC[C@@H](C)[C@@](O)(O2)C(=O)C(=O)N2CCCC[C@H]2C(=O)O[C@H]([C@H](C)C[C@@H]2CC[C@@H](O)[C@H](OC)C2)CC(=O)[C@H](C)/C=C(\C)[C@@H](O)[C@@H](OC)C(=O)[C@H](C)C[C@H](C)/C=C/C=C/C=C/1C [rapamycin]
  direct anti-mycobacterial activity in MIC assay: showed inhibition of mycobacterial growth

From US9539222B2, “Methods to inhibit intracellular growth of bacteria and to treat bacteria-mediated diseases” (priority 2012, dated 2017)
